Measured values from article PMC2967473, “PP2A1 Binding, Cell Transducing and Apoptotic Properties of Vpr77–92: A New Functional Domain of HIV-1 Vpr Proteins” (PLoS ONE, 2010).
These are yes or no findings as the source states them, for the method shown. Some results given as binding are weak or reduced against the parent protein; the word gives no strength.

Amino acid sequences for entries named in this document (tags omitted).
UniProt P30153: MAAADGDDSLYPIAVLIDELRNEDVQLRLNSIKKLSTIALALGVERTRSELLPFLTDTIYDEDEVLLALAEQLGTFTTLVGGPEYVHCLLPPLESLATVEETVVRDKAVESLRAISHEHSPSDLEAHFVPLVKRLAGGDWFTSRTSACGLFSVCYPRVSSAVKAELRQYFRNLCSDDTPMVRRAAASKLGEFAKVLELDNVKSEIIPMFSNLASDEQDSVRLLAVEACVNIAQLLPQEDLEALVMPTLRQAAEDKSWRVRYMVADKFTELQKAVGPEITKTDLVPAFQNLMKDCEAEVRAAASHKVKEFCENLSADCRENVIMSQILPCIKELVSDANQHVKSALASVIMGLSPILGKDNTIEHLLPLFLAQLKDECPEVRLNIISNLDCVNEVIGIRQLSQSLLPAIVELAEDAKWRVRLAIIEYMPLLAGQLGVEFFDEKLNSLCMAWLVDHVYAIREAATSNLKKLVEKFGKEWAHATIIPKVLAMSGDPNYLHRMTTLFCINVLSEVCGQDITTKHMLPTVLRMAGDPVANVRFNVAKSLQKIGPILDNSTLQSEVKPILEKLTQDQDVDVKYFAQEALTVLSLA

Assays:
Test in all cases: peptide or protein array; both purified
[1] = molecular target: 89.6-Vpr dodecapeptide 30 (cellulose-bound) (HIV-1 (89.6 isolate))
[2] = molecular target: 89.6-Vpr dodecapeptide 29 (cellulose-bound) (HIV-1 (89.6 isolate))
[3] = molecular target: 89.6-Vpr dodecapeptide 32 (cellulose-bound) (HIV-1 (89.6 isolate))
[4] = molecular target: 89.6-Vpr dodecapeptide 31 (cellulose-bound) (HIV-1 (89.6 isolate))

Measured: binding

recombinant PP2A-A subunit (from UniProt P30153 1-589)
binds: all assays above
